Test results taken from paper PMC9253731.
No constants are given. Whether binding was seen depends on the method and setting. Binding seen in cells or lysates may run through a third protein. Some results given as binding are weak or reduced against the parent protein; the word gives no strength.

Sequences of proteins named here, by UniProt entry; tags and fusion partners are left off.
UniProt P25490: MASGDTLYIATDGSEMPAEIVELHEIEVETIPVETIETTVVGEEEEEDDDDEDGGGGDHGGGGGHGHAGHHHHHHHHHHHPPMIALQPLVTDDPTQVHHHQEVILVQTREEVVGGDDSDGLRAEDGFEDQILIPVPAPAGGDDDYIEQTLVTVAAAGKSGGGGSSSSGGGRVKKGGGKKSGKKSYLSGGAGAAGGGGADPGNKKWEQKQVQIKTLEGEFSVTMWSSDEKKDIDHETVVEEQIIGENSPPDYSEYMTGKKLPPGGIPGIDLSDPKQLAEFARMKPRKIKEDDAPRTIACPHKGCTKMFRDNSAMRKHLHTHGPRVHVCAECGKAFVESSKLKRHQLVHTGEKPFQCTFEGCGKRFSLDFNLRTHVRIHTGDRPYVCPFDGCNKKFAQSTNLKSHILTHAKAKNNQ
UniProt O00571: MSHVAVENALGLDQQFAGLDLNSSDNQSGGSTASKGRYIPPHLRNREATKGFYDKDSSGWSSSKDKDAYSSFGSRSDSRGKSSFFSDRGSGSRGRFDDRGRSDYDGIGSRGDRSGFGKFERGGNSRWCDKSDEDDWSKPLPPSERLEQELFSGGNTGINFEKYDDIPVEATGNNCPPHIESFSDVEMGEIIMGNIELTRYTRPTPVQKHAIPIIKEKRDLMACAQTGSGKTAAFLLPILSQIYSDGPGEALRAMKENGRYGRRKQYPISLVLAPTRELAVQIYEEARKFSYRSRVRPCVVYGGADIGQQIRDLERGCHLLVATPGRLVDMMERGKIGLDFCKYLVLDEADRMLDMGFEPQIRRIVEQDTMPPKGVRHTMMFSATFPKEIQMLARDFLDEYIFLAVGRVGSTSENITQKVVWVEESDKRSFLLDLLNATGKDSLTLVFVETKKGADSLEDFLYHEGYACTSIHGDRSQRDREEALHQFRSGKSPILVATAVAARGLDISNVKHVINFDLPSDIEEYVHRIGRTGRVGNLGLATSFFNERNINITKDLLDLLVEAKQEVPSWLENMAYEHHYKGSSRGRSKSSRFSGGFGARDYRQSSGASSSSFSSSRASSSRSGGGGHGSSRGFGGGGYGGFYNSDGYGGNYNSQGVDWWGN
UniProt Q07866: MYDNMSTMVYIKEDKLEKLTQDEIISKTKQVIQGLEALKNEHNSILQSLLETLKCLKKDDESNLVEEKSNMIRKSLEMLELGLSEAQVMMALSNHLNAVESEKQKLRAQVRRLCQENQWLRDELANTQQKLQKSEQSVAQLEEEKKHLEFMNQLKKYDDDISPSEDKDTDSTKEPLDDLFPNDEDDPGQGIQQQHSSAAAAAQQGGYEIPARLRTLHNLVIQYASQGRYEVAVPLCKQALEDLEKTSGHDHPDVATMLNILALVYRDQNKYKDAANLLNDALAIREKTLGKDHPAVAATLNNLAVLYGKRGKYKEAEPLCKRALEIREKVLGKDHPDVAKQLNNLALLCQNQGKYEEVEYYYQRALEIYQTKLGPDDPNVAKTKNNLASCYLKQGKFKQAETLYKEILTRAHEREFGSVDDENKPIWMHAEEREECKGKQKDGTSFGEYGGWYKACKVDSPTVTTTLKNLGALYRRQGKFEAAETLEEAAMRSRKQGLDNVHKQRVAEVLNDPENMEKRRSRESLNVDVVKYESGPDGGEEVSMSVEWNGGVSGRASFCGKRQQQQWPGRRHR

T1: kinectin 1 (human (endogenous in MDA-MB-231 and BT549)) (UniProt Q86UP2)
T1 sequence: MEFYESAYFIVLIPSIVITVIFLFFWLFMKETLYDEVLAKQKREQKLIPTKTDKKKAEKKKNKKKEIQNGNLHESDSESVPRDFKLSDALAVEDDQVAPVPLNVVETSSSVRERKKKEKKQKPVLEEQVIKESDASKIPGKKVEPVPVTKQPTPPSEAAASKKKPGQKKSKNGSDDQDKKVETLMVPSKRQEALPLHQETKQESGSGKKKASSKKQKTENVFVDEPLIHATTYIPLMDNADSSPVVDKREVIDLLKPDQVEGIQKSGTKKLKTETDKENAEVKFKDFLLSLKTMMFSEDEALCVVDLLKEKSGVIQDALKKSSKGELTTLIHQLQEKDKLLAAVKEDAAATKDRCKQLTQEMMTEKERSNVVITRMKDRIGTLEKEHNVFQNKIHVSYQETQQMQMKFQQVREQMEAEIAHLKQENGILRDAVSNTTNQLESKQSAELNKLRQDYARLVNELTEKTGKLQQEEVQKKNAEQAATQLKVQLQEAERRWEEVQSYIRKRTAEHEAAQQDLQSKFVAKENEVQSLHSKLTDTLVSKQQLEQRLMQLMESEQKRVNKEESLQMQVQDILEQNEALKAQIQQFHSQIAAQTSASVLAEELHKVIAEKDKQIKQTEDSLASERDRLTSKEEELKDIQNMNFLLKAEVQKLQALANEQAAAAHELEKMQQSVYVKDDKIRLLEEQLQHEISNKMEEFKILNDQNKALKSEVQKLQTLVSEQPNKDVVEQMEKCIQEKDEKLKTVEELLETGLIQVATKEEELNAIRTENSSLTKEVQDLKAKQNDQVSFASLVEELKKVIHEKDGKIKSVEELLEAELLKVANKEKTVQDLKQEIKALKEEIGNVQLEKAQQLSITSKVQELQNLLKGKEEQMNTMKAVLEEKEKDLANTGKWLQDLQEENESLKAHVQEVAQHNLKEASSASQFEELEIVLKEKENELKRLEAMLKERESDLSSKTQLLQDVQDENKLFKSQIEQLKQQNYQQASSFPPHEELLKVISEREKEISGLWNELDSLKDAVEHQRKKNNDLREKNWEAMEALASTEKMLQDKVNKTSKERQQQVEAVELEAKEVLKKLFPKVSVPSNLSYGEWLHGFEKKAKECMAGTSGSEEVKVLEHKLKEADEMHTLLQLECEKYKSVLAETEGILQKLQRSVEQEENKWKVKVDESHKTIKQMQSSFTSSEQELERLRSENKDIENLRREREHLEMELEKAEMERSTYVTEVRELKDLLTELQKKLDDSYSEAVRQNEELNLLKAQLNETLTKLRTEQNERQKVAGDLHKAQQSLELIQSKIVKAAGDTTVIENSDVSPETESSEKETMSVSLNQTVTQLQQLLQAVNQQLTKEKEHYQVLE


Assays:
[1] = target: Yin Yang 1 (human (endogenous in MDA-MB-231 and BT549)) (UniProt P25490); assay: co-IP; immunoprecipitation of endogenous YY1 with anti-YY1 antibody from MDA-MB-231 and BT549 lysates, control IgG; precipitate analysed by western blotting
[2] = target: T1, kinectin 1 (human (endogenous in MDA-MB-231 and BT549)); assay: co-IP; immunoprecipitation with KTN1 antibody against negative control IgG in both types of BCa cells; KIFC1 and KLC1 detected

binding [1] | binding [2] | Molecule
binds |  | DEAD-box helicase 3 X-linked (from UniProt O00571 1-662)
 | binds | Kinesin light chain 1 (from UniProt Q07866 1-573)
 | binds | Kinesin family member C1 (protein, UniProt Q9BW19 1-673) MDPQRSPLLEVKGNIELKRPLIKAPSQLPLSGSRLKRRPDQMEDGLEPEKKRTRGLGATTKITTSHPRVPSLTTVPQTQGQTTAQKVSKKTGPRCSTAIATGLKNQKPVPAVPVQKSGTSGVPPMAGGKKPSKRPAWDLKGQLCDLNAELKRCRERTQTLDQENQQLQDQLRDAQQQVKALGTERTTLEGHLAKVQAQAEQGQQELKNLRACVLELEERLSTQEGLVQELQKKQVELQEERRGLMSQLEEKERRLQTSEAALSSSQAEVASLRQETVAQAALLTEREERLHGLEMERRRLHNQLQELKGNIRVFCRVRPVLPGEPTPPPGLLLFPSGPGGPSDPPTRLSLSRSDERRGTLSGAPAPPTRHDFSFDRVFPPGSGQDEVFEEIAMLVQSALDGYPVCIFAYGQTGSGKTFTMEGGPGGDPQLEGLIPRALRHLFSVAQELSGQGWTYSFVASYVEIYNETVRDLLATGTRKGQGGECEIRRAGPGSEELTVTNARYVPVSCEKEVDALLHLARQNRAVARTAQNERSSRSHSVFQLQISGEHSSRGLQCGAPLSLVDLAGSERLDPGLALGPGERERLRETQAINSSLSTLGLVIMALSNKESHVPYRNSKLTYLLQNSLGGSAKMLMFVNISPLEENVSESLNSLRFASKVNQCVIGTAQANRK
